Data as given in publication PMC10579798.
Results are given in words; binding and its absence hold for the method and conditions named. Binding seen in cells or lysates may run through a third protein. Binding can be weak; no strength is given. Sequences can lack the tags named with a protein.

Target: T1, HA-tagged Hipk (Drosophila homeodomain-interacting protein kinase) (Drosophila) (UniProt Q9W0Q1)
T1 sequence: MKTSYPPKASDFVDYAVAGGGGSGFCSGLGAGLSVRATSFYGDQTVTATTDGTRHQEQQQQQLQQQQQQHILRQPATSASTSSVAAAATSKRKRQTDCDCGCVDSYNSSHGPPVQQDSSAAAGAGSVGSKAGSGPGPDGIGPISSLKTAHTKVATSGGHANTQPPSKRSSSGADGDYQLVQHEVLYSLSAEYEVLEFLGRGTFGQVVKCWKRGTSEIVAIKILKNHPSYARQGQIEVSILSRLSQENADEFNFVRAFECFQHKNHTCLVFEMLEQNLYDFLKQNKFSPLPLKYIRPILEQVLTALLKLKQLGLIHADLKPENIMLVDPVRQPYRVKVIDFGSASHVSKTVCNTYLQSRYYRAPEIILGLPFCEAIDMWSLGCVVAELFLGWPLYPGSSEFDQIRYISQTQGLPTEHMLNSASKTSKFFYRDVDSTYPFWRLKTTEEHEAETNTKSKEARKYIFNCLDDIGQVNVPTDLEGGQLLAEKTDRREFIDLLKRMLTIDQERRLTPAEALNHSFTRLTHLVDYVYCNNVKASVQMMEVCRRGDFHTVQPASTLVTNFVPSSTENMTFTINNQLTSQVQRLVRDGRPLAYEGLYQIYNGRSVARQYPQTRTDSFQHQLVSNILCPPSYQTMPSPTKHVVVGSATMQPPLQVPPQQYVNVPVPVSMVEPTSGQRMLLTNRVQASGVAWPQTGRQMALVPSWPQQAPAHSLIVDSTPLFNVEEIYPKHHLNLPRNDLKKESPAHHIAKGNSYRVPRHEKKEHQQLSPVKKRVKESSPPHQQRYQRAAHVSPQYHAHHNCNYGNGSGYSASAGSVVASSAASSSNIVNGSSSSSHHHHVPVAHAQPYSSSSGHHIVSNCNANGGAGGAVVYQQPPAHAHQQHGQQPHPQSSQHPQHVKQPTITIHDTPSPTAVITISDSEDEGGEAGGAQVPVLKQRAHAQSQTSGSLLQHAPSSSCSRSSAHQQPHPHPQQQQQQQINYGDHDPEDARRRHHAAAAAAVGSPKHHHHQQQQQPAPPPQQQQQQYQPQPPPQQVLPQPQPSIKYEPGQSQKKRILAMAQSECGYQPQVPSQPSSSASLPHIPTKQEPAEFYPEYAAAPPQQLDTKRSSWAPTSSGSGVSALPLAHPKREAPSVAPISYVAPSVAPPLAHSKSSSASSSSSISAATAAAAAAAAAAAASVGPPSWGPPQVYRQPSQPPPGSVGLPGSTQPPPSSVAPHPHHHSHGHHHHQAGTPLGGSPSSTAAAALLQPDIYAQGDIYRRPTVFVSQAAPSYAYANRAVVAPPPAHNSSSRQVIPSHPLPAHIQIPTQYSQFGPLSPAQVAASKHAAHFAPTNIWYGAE
Assay: co-IP; protein extracts of dpp-Gal4 larvae co-expressing HA-Hipk and a myc-tagged Sik; precipitated with anti-Hipk antibodies (control IgG), overnight at 4°C, protein A and protein G magnetic beads, washed with lysis buffer, Western blot

binding: binds
Substance: myc-tagged wild-type Sik2 (Drosophila salt-inducible kinase 2) (from UniProt Q9W532) (enzyme)
